Test results as given in PMC9305541.
No constants are given. Whether binding was seen depends on the method and setting. Some binding calls cover weakened binding; strength is not graded here. For some assays here: Tags and fused reporters may be left off the sequences shown.

What was measured:
[1] = target: Arabidopsis thaliana catalase 2 (CAT2), endogenous in wild type (Col-0) leaves (Arabidopsis thaliana (endogenous in Col-0 leaves)) (UniProt P25819); test: native gel or EMSA; leaf extracts of 4-week-old plants (20 µg total protein; 100 mM Tris-HCl pH 8.0, 20% glycerol, 30 mM DTT) on 7.5% native PAGE, room temperature; western blot with anti-catalase antibody and in-gel activity assay
[2] = target: CAT2^PSI, untagged wild type AtCAT2 sequence expressed from the CAT2 promoter in the cat2-1 mutant (Arabidopsis thaliana) (UniProt P25819); test: as above

B1: Arabidopsis thaliana catalase 2 (CAT2), endogenous in wild type (Col-0) leaves (enzyme, UniProt P25819 1-492)
chain: MDPYKYRPASSYNSPFFTTNSGAPVWNNNSSMTVGPRGPILLEDYHLVEKLANFDRERIPERVVHARGASAKGFFEVTHDISNLTCADFLRAPGVQTPVIVRFSTVIHERGSPETLRDPRGFAVKFYTREGNFDLVGNNFPVFFIRDGMKFPDMVHALKPNPKSHIQENWRILDFFSHHPESLNMFTFLFDDIGIPQDYRHMDGSGVNTYMLINKAGKAHYVKFHWKPTCGVKSLLEEDAIRVGGTNHSHATQDLYDSIAAGNYPEWKLFIQIIDPADEDKFDFDPLDVTKTWPEDILPLQPVGRMVLNKNIDNFFAENEQLAFCPAIIVPGIHYSDDKLLQTRVFSYADTQRHRLGPNYLQLPVNAPKCAHHNNHHEGFMNFMHRDEEVNYFPSRYDQVRHAEKYPTPPAVCSGKRERCIIEKENNFKEPGERYRTFTPERQERFIQRWIDALSDPRITHEIRSIWISYWSQADKSLGQKLASRLNVRPSI
- binding [1]: binds

B2: CAT2^PSI, untagged wild type AtCAT2 sequence expressed from the CAT2 promoter in the cat2-1 mutant (enzyme, UniProt P25819 1-492)
chain: B1 chain
- binding [2]: binds
